We go through one compound from patent publication US10556943B2, “HLA-DR binding peptides and their uses” (priority 2007, dated 2020).

For this data set, the system named is 15 different HLA-DR molecules. The experiment in a line: Binding assays targeting 15 different HLA-DR molecules (breadth of binding). Further details: species or system human. To be noted: number of the 15 HLA-DR molecules bound.

As to `CC[C@H](C)[C@H](NC(=O)[C@H](Cc1c[nH]cn1)NC(=O)[C@H](CC(C)C)NC(=O)[C@H](CO)NC(=O)[C@H](Cc1ccc(O)cc1)NC(=O)[C@H](CC(C)C)NC(=O)[C@H](Cc1c[nH]cn1)NC(=O)[C@H](CCC(=O)O)NC(=O)[C@H](CC(C)C)NC(=O)[C@@H]1CCCN1C(=O)CNC(=O)[C@H](CCCNC(=N)N)NC(=O)[C@@H](N)CCC(=O)O)C(=O)N1CCC[C@H]1C(=O)N[C@@H](CC(N)=O)C(=O)O` [Peptide 9019.0190], the “Total XRN” value was determined as 8.
